Results: patent US9441012B2, “Fluorinated epoxyketone-based compounds and uses thereof as proteasome inhibitors” (FLUORINOV PHARMA INC., priority 2012, dated 2016)
At least one structure is not confirmed: it was looked up by name or label, or the drawing left a doubt.

Columns and labels:
[1] = tested on: chymotrypsin-like (CT-L) proteasome activity, OCI-AML-2; assay: Proteasome enzymatic activity (tumor cell lysates); assay type: biochemical, human; conditions: OCI-AML-2 cell lysate; mean ± standard deviation
Procedure: (§1) Cells were harvested by centrifugation at 1,200 rpm at room temperature. Cell pellets were washed with PBS and lysed with assay lysis buffer (50 mM HEPES (N-2-hydroxyethylpiperazine-N′-2-ethanesulfonic acid), pH 7.5; 150 mM NaCl; 1% Triton X-100; 2 mM ATP). Cell lysates were incubated on ice for 30 minutes, mixed by vortex every 5 minutes, and then centrifuged at 12,000 g for 10 minutes. The supernatant was transferred to a 96-well plate. For each assay, 10 μg of total protein were incubated for 1 hour at 37° C. with increasing concentrations (1 nM to 10 μM) of test compound diluted in assay buffer (50 mM Tris-HCl (tris(hydroxymethyl)aminomethane-HCl), pH 7.5; 150 mM NaCl). DMSO alone was used as a control in every assay plate. After incubation, a specific fluorogenic proteasome substrate was added to each assay reaction at a final concentration of 40 μM in a total volume of 100 μL. […] The excitation wavelength was set at 360 nm and the fluorescence emission wavelength of AMC was detected at 460 nm. The fluorescence of free AMC released during the enzymatic reaction was measured with a SpectraMax M5 fluorescent spectrophotometric plate reader (Molecular Devices, Sunnyvale, Calif.). AMC release rate was measured at 37° C. in a kinetic mode, recording every 5 minutes for 30 minutes. […]

[2] = tested on: chymotrypsin-like (CT-L) proteasome activity, KMS-11; assay: Proteasome enzymatic activity (tumor cell lysates); assay type: biochemical, human; conditions: KMS-11 cell lysate; mean ± standard deviation
Procedure: as §1

CC(C)C[C@H](NC(=O)[C@H](Cc1ccccc1)NC(=O)[C@H](COC(F)F)NC(=O)CN1CCOCC1)C(=O)[C@@]1(C)CO1 [Example 25, (2S)-2-[[(2S)-3-(difluoromethoxy)-2-[(2-morpholinoacetyl)amino]propanoyl]amino]-N-[(1S)-3-methyl-1-[(2R)-2-methyloxirane-2-carbonyl]butyl]-3-phenyl-propanamide]
IC50 [1]: 154 ± 14.8 nM | IC50 [2]: 173 ± 14.2 nM
